This is an account of results in PubChem BioAssay AID2685 (National Center for Advancing Translational Sciences (NCATS), 2010).

Some of the results follow. Further columns of the screen follow, without active or inactive calls. Compounds called inactive in the main read-out are mostly missing here. Words in brackets tell the shape of the fitted curve; partial curves, single points and poor fits give uncertain potencies.

A short description of this assay: qHTS Assay for Lipid Storage Modulators in Drosophila S3 Cells.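 As to cell number change: cells counted by Cell Tracker Red CMTPX staining in the red channel.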 The conditions noted are these: BODIPY lipid droplet fluorescence, 18-24 h; for cell number change: measured here: cell count max response, cells fed with added oleic acid. Summed up:
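Drosophila S3 cells loaded with oleic acid (400 uM, as added) and compounds at several concentrations; lipid droplets imaged by 488-nm laser-scanning cytometry, 500–530 nm intensity and object ratio to cell channel. Percent activity normalized to 20 uM Triacsin C.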
On the technique in general: qHTS replaces the single test concentration by a dilution series.

Setting [1] is: measured here: cell number channel AC50, cells fed with added oleic acid.
[2] abbreviates: measured here: lipid fluorescence (Fed channel) AC50, cells fed with added oleic acid.

For the molecule `O=C(Cc1cccs1)N/N=C\c1ccc([N+](=O)[O-])s1`, the cell number change is -48.8%. The AC50 under setting [1] is 9.2 µM [falling, partial curve, poor fit]. For the same molecule, the AC50 under setting [2] is 13 µM [falling, partial curve].

In the case of `CCCNC(=O)COC(=O)/C=C/c1cccc(F)c1`, the cell number change was found to be 35.9%. For the same molecule, the AC50 under setting [1] was 8.2 µM [rising, partial curve, poor fit].

Take `CSCC[C@H](NC(=O)c1ccc2c(c1)OCO2)c1nnc2ccccn12`: the cell number change stood at 5.34%.

Consider `Cc1ccc(NC(=O)c2cc3ccccc3o2)cc1S(=O)(=O)N(C)C`, for which the cell number change was determined as 38.7%. Besides, the AC50 under setting [1] is 0.0651 µM [rising, full curve, poor fit]. Further, under setting [2], the AC50 is 0.92 µM [rising, partial curve].

For the molecule `CN(CC(=O)Nc1ccc(Cl)cc1)C(=O)c1ccc(S(=O)(=O)Nc2ccccc2)cc1`, under setting [1], the AC50 was 1.3 µM [rising, full curve, poor fit].

Turning to `O=C(OCN1C(=O)c2ccccc2C1=O)c1cccnc1SC(F)F`, the cell number change was -11.3%.

For `COC(C(=O)Nc1ccnn1C1CCN(Cc2ccc(CO)o2)CC1)c1ccccc1` (stereo unspecified), the cell number change is -21.8%.

On to `Cc1nn(C)c(C(=O)N/N=C/c2ccc(-c3ccccc3)cc2)c1Cl`, for which the cell number change is 12.9%. For the same molecule, the AC50 under setting [2] is 25.9 µM [rising, single point].

Take `COc1ccc(OCCN(C)C(=O)c2cccc(S(=O)(=O)N(C)c3ccccc3)c2)cc1`: the cell number change amounted to 26%. Also, the AC50 under setting [1] is 1.84 µM [rising, full curve, poor fit]. Moreover, the AC50 under setting [2] was 2.91 µM [rising, full curve].

With `CN(C(=O)CSc1nnc(NCc2ccccc2)s1)C1CCS(=O)(=O)C1` (stereo unspecified), the cell number change was -7.08%. Also, under setting [2], the AC50 is 0.411 µM [rising, single point].

Regarding `O=C(COC(=O)Cc1ccccc1F)NNC(=O)c1ccc([N+](=O)[O-])cc1`, the cell number change was -25%.

Turning to `CCOC(=O)c1oc2ccc(/C=N/O)c(Cl)c2c1C`, the cell number change came out at 10.1%. In addition, under setting [1], the AC50 is 4.61 µM [falling, single point]. In addition, the AC50 under setting [2] was 6.51 µM [falling, single point].

On to `O=C(N/N=C/c1ccc([N+](=O)[O-])cc1)c1cccc(N2CCCC2=O)c1`, for which the AC50 under setting [2] is 29.1 µM [falling, single point].

Take `Cc1cc(OCC(=O)NCc2ccccn2)c2c(C)cc(=O)oc2c1`: the cell number change was -3.06%. For the same molecule, the AC50 under setting [2] was 14.6 µM [falling, single point].

Turning to `Cc1ccc(OCC(=O)N(C)CCc2ccccn2)cc1`, the cell number change stood at 23.8%. In addition, the AC50 under setting [2] was 9.2 µM [rising, partial curve].

With `Fc1ccccc1CSc1ncnc2sc3c(c12)CCCC3`, the cell number change amounted to 17%. Moreover, the AC50 under setting [1] is 6.51 µM [rising, single point]. In addition, the AC50 under setting [2] was 2.59 µM [rising, partial curve, poor fit].

As for `O=C(CSc1nc2ccccc2c(=O)n1-c1ccccc1)N1CCN(CCO)CC1`, the cell number change came to 3.98%. The AC50 under setting [2] is 0.164 µM [falling, full curve, poor fit].

Turning to `COc1ccc(S(=O)(=O)c2cnc3ccc(OC)cc3c2N2CCC3(CC2)OCCO3)cc1`, the cell number change was determined as 34.8%. Moreover, under setting [1], the AC50 is 4.11 µM [rising, partial curve]. The AC50 under setting [2] was 20.6 µM [rising, partial curve].

Consider `O=C1C(Cc2ccc(F)cc2)SC(=Nc2ccccc2)N1c1ccccc1` (stereo unspecified), for which the cell number change was found to be 14.6%. The AC50 under setting [2] was 16.4 µM [rising, single point].

As to `CCOC(=O)C1=C(N)Oc2cc(C)oc(=O)c2C1c1cccnc1` (stereo unspecified), the cell number change amounted to 37.3%. In addition, the AC50 under setting [1] is 0.651 µM [rising, full curve].

In the case of `CCn1c(SCC(=O)Nc2nonc2C)nnc1-c1ccoc1C`, the cell number change was -7.85%. Under setting [2], the AC50 was 0.231 µM [falling, full curve].

On to `COc1ccc(Cl)cc1-n1c(C)ccc1C`, for which the cell number change is -7.47%. In addition, the AC50 under setting [1] is 0.259 µM [falling, full curve, poor fit].

As for `Cc1nc(N2CCN(c3ccccn3)CC2)c2c(C)c(C(=O)N3CCN(c4cccc(Cl)c4)CC3)sc2n1`, the cell number change stood at 196%. Further, the AC50 under setting [1] was 29.1 µM [rising, single point]. In addition, the AC50 under setting [2] is 29.1 µM [rising, single point].

For the molecule `CC(C)NC(=O)/C(C#N)=C\c1ccc(N(C)C)c(Br)c1`, the cell number change was -23.3%. For the same molecule, under setting [1], the AC50 was 2.31 µM [falling, partial curve].

`COc1ccc(-c2cc(C)no2)cc1S(=O)(=O)N1CCCCC1`: the cell number change was -19.3%. In addition, under setting [2], the AC50 is 20.6 µM [falling, partial curve].

With `O=c1c2ccccc2nc(CSc2nnnn2-c2ccccc2)n1-c1ccccc1`, the cell number change was 26.8%.

With `COC(=O)c1ccc(C(=O)N2CCCC(Nc3ccc(C(C)C)cc3)C2)nc1` (stereo unspecified), the cell number change was -16.4%. Further, the AC50 under setting [2] was 23.1 µM [falling, single point].

As to `O=C(CN1CCOCC1)N(c1ccccc1)c1ccc2ccccc2c1`, the cell number change was 70.2%. Also, under setting [1], the AC50 is 13 µM [rising, partial curve, poor fit]. Also, the half-maximal activity concentration (AC50) under setting [2] was 0.058 µM [falling, partial curve, poor fit].

Take `O=C(NCCN1CCOCC1)c1ccc(Cl)c(Cl)c1`: the cell number change was 17.9%. The AC50 under setting [2] was 0.651 µM [falling, full curve].

Turning to `CC1NC(=S)N(Cc2ccccc2)C1=O` (stereo unspecified), the cell number change came to 15.8%. For the same molecule, the AC50 under setting [2] is 29.1 µM [falling, single point].

Consider `Cc1cc(C)c2c(CN3CCCCC3C)cc(=O)oc2c1` (stereo unspecified), for which the cell number change was 45.4%. Besides, the AC50 under setting [1] was 23.1 µM [rising, single point]. Also, the AC50 under setting [2] was 18.4 µM [rising, partial curve].

As for `O=C1OCCC1Sc1nnc(-c2ccccc2Br)n1Cc1ccccc1` (stereo unspecified), the cell number change is -18.6%. Besides, under setting [2], the AC50 is 6.51 µM [rising, single point].

In the case of `CCC1Oc2ccc(C)cc2N(CC(=O)NCCCN2CCOCC2)C1=O` (stereo unspecified), the cell number change is 9.4%.

Turning to `COc1cc(/C=C(\C#N)C(=O)Nc2ccc(C(=O)O)cc2)ccc1OC(=O)c1cccc(F)c1`, the cell number change is -21.7%. In addition, the AC50 under setting [2] was 6.51 µM [rising, single point].

As to `COc1ccccc1C(C)NC(=O)c1ccc(C)o1` (stereo unspecified), the AC50 under setting [1] is 0.326 µM [rising, partial curve].

`CCOC(=O)c1c2ccc(OCC(=O)N/N=C/c3ccccc3C(F)(F)F)cc2n2ccccc12`: the cell number change was determined as 22.9%. Also, the AC50 under setting [2] was 1.46 µM [rising, full curve, poor fit].

For the molecule `CCC(=O)Nc1c(S(=O)(=O)c2ccccc2)c2nc3ccccc3nc2n1Cc1ccccc1`, the cell number change came to 13.2%. Further, the AC50 under setting [2] is 29.1 µM [rising, single point].

`O=C(CNC(=O)c1ccc2ccccc2c1)NCc1ccc(F)cc1`: the cell number change turned out to be 182%. Moreover, under setting [1], the AC50 is 18.4 µM [rising, partial curve].

What is called AC50 is the concentration at which the activity in the assay is half-maximal. A low value points to activity at low concentration.
